Test results as given in PubChem BioAssay AID2685 (National Center for Advancing Translational Sciences (NCATS), 2010).
The campaign covered roughly 320,000 compounds. About 2,100 (0.66%) were called active. The inconclusive results got no clear call from the source; some entries with a clear call stand among them for comparison. The call rests on the fitted dose curve; in most records, active means well fitted inhibition curve with a large enough effect in the signal ratio, with a control signal flat (not every such curve was filed as active); inconclusive means small, poorly fitted or top-dose-only effect, or effect the other way, or a change in a side signal; inactive means flat fitted curve, though single readings scatter; the % refers to the signal ratio. Potencies beside an inconclusive call are fits to weak or partial responses and may not hold up.

assay: qHTS Assay for Lipid Storage Modulators in Drosophila S3 Cells; settings: BODIPY lipid droplet fluorescence, 18-24 h, cells fed with added oleic acid; lipid storage change, negative = inhibition: at 46.1 µM (top of the series) unless noted
How it was run: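 Drosophila S3 cells got compounds at several concentrations plus oleic acid (400 uM solution). Laser-scanning cytometry with 488 nm excitation read lipid droplets at 500-530 nm and cells at 575-640 nm. Percent activity was relative to 20 uM Triacsin C.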
On the % scale 0 is the no-effect control and ±100 the full control effect; potency means the concentration at half of the fitted maximal effect.

Row | Compound | lipid storage change, negative = inhibition | Potency
1 | CCOc1ccc(CN(Cc2ccco2)C(c2cccs2)c2nnnn2C(C)(C)C)cc1 (stereo unspecified) | inconclusive: 40.8% | 
2 | O=C(NCC1COc2ccccc2O1)c1cccc(S(=O)(=O)N2CCCCC2)c1 (stereo unspecified) |  | active: 2.06 µM
3 | COc1ccc(CCNC(=O)C(C)OC(=O)c2ccco2)cc1OC (stereo unspecified) |  | inconclusive: 29.1 µM [falling, single point]
4 | COCCn1c(SCC(=O)Nc2ccccc2C(F)(F)F)nc2ccccc2c1=O |  | inconclusive: 2.59 µM [activator, partial curve, poor fit]
5 | CC(c1ccccc1)n1cc(C(=O)NCc2ccncc2)nn1 (stereo unspecified) |  | inconclusive: 29.1 µM [falling, single point]
6 | Cc1cnn(Cc2ccccc2)c1N | inconclusive: -0.233% | 
7 | Cc1ccc([C@@H]2[C@@H]3C(=O)N(C)C(=O)[C@@H]3[C@]3(C)C(=O)N(Cc4ccccn4)CC(=O)N23)o1 | inconclusive: 44.2% | 
8 | Cc1ccc(NC(=O)CSc2nnc(C3COc4ccccc4O3)o2)c(Cl)c1 (stereo unspecified) | inconclusive: 9.16% | 
9 | COc1ccc2[nH]c(=O)c(CN(CC3CCCO3)C(=O)Nc3ccccc3OC)cc2c1 (stereo unspecified) | inconclusive: 15.4% | 
10 | Cc1ccc(SC[C@H](CC(C)C)N2CCN(CCc3ccccc3)CCC2=O)cc1 |  | inconclusive: 32.6 µM [falling, single point]
11 | COc1ccc2[nH]c(C(O)(Cc3cccnc3)Cc3cccnc3)cc2c1 | inconclusive: 21.7% | 
12 | Cc1cccn2c(=O)c3cc(C(=O)NC4CCCCC4C)n(C)c3nc12 (stereo unspecified) |  | inconclusive: 0.82 µM [falling, full curve, poor fit]
13 | CCN1C(=O)[C@H]2[C@@H](c3ccc(C)cc3)N3C(=O)N(c4ccc(C)cc4)C(=O)[C@@]3(CC)[C@H]2C1=O | inconclusive: -8.99% | 
14 | CCc1nn(C(C)C(=O)NCCc2ccc(OC)c(OC)c2)c(=O)c2cc3occc3n12 (stereo unspecified) |  | inconclusive: 2.91 µM [activator, partial curve]
15 | Cc1ccc(N=C2C(=O)Nc3ccc(Br)cc32)cc1 | inconclusive: 36.6% | 
16 | O=C(NCc1ccco1)c1cccc(NC(=O)c2ccccc2)c1 |  | inconclusive: 0.92 µM [rising, full curve]
17 | CCOc1ccc(C(=O)Nc2cc(S(=O)(=O)Nc3ccccc3Cl)ccc2N2CCOCC2)cc1 | inconclusive: 10.8% | 
18 | CCNC(=O)c1ccccc1-c1nc(-c2ccccc2Cl)no1 | inconclusive: 24.4% | 
19 | Cc1ccc2[nH]c(=O)c(CN(Cc3cccs3)Cc3nnnn3Cc3ccccc3)cc2c1 | inconclusive: 31.2% | 
20 | O=C(N/N=C/c1ccncc1)/C(=C/c1ccccc1)NC(=O)c1ccccc1 | inconclusive: 5.3% | 
21 | O=c1[nH]c2ccccc2n1C1=CCCC1 | inconclusive: 25.9% | 
22 | O=C1OCCN1CCN(CN1C(=O)CCC1=O)CN1C(=O)CCC1=O | inconclusive: -13.2% | 
23 | Cc1nc(-c2ccc(O)c(O)c2)cs1 | inconclusive: -30.3% | 
24 | COc1ccc(OC)c(S(=O)(=O)Nc2ccc3c(c2)C(=O)OC3)c1 | inconclusive: -19.2% | 

Gathered by group: the entries above containing a thiophene ring, fused or not.
Row | Compound | lipid storage change, negative = inhibition | Potency
1 | CCOc1ccc(CN(Cc2ccco2)C(c2cccs2)c2nnnn2C(C)(C)C)cc1 (stereo unspecified) | inconclusive: 40.8% | 
19 | Cc1ccc2[nH]c(=O)c(CN(Cc3cccs3)Cc3nnnn3Cc3ccccc3)cc2c1 | inconclusive: 31.2% | 

Next records.

Row | Compound | lipid storage change, negative = inhibition | Potency
25 | O=C(COC(=O)C1CC(=O)N(Cc2ccco2)C1)c1ccc(OC(=O)c2ccccc2)cc1 (stereo unspecified) | inconclusive: -7.89% | 
26 | CC(C)N1C(=S)SC2CS(=O)(=O)C=C21 (stereo unspecified) | inconclusive: -3.13% | 
27 | CC(=O)NC(c1cc(Cl)c2ccccc2c1O)C(C)C (stereo unspecified) | inconclusive: 32.7% | 
28 | Cc1c(Cl)cccc1NC(=O)COC(=O)C12CC3CC(CC(O)(C3)C1)C2 |  | inconclusive: 5.8 µM [activator, full curve, poor fit]
29 | COc1ccc(/C=C(/C(=O)c2cccs2)N2C=CC=CC2=C(C#N)C#N)cc1 |  | inconclusive: 6.51 µM [cytotoxic, full curve]
30 | O=C1CCc2cc(S(=O)(=O)Nc3ccccc3Cl)ccc2N1 | inconclusive: -35.7% | 
31 | O=C(COc1ccc(Cl)cc1)OCc1csc(Nc2ccccc2)n1 |  | inconclusive: 29.1 µM [falling, single point]
32 | Cc1c(C(=O)NCc2cccnc2)oc2ccc(S(=O)(=O)N3CCC4(CC3)OCCO4)cc12 |  | inconclusive: 18.4 µM [activator, partial curve]
33 | Cc1ccc(NC(=O)c2ccc(Cl)c(N3C(=O)CCC3=O)c2)cc1 |  | inconclusive: 0.0517 µM [activator, partial curve, poor fit]
34 | Cc1ccc2c(c1)N(C(=O)CCC(=O)NCc1ccccc1)CC(C)O2 (stereo unspecified) |  | inconclusive: 29.1 µM [falling, single point]
35 | COc1ccc(-n2nc3c(c2NC(=O)Cc2cccc(C)c2)CS(=O)C3)cc1 (stereo unspecified) |  | inconclusive: 3.66 µM [falling, single point]
36 | COc1ccc(-c2cc3ccccc3oc2=O)cc1NC(=O)c1ccc([N+](=O)[O-])o1 | inconclusive: -28.6% | 
37 | O=C(CCCC(=O)Nc1ccc(Br)cc1)N/N=C/c1ccccc1 | inconclusive: 9.2% | 
38 | COc1cccc(C(=O)Oc2ccc(/C=N/Nc3ccc(C(=O)O)cc3)cc2OC)c1 |  | inconclusive: 0.116 µM [activator, full curve, poor fit]
39 | Cc1ccc(NC(=O)CSc2n[nH]c(-c3cccnc3)n2)c(Br)c1 |  | inconclusive: 29.1 µM [activator, single point]
40 | O=C1CC(NCc2ccco2)C(=O)N1CCc1ccccc1 (stereo unspecified) | inconclusive: 6.2% | 
41 | COc1ccc(/C=C(\C#N)C(=O)OCC(=O)Nc2c(C)cccc2C)cc1 | inconclusive: 11.7% | 
42 | COc1ccc(CNC(=O)c2oc3ccc(S(=O)(=O)N4CCOCC4)cc3c2C)cc1 | inconclusive: -100% | 
43 | O=C1/C(=C\c2cccnc2)SC(=S)N1C1CCS(=O)(=O)C1 (stereo unspecified) | inconclusive: -11.5% | 
44 | CC(OC(=O)/C=C/c1ccco1)C(=O)NC1CCCCC1C (stereo unspecified) |  | inconclusive: 1.64 µM [falling, full curve]
45 | CC(C)COC(=O)/C(C#N)=C/c1cn(Cc2ccccc2)c2ccccc12 |  | inconclusive: 18.4 µM [falling, single point]
46 | CC1(C)C(=O)OC(c2cccn2-c2ccc([N+](=O)[O-])cc2)C2(CCCCC2)C1=O (stereo unspecified) | inconclusive: -0.0441% | 
47 | O=C(CSc1ccc(-c2ccccn2)nn1)N1CCCc2ccccc21 | inconclusive: -0.0097% [at 9.22 µM] | 
48 | O=C(O)CCCNc1cc(N2CCC3(CC2)OCCO3)c2noc3c2c1C(=O)c1ccccc1-3 | inconclusive: -37.3% | 

Row | Compound | lipid storage change, negative = inhibition | Potency
49 | Cc1c(OC(C)C(=O)O)ccc2c3c(c(=O)oc12)CCCC3 (stereo unspecified) | inconclusive: 15.9% | 
50 | COc1ccccc1CNc1nc(=S)[nH]c2cc(OC)c(OC)cc12 | inconclusive: -44.2% | 
51 | Cc1cc(NC(=O)Cn2c(=O)n(Cc3ccccc3)c(=O)c3ccccc32)no1 | inconclusive: -12.7% | 
52 | Cc1ccc(-c2cc(C(=O)N3CCN(c4ccccc4O)CC3)c3ccccc3n2)o1 |  | inconclusive: 29.1 µM [activator, single point]
53 | CC(C)OC(=O)CSc1nc2cccnc2n1-c1ccc(F)cc1 | inconclusive: -3.76% | 
54 | CCOc1ccccc1NC(=O)N1CCCC(c2nc3c(nnn3Cc3ccc(C)cc3)c(=O)[nH]2)C1 (stereo unspecified) | inconclusive: 9.88% | 
55 | N=C1/C(=C\c2ccc(OC(=O)c3ccc(F)cc3)cc2)C(=O)N=C2SC(N3CCOCC3)=NN12 |  | inconclusive: 6.51 µM [activator, partial curve]
56 | CCOC(=O)[C@H]1[C@H]2COc3ccc(Cl)cc3[C@@H]2N2C(=O)CN(C)C(=O)[C@@]12C | inconclusive: 15.3% | 
57 | N#Cc1nc(COc2ccc(Cl)cc2Cl)oc1N1CCOCC1 | inconclusive: -6.75% | 
58 | Cc1cccc(N(C(=O)c2snc(C(N)=O)c2N)C(C(=O)NCC2CCCO2)c2ccc3ncccc3c2)c1 (stereo unspecified) | inconclusive: 86.8% | 
59 | CCc1ccccc1NC(=O)CNC(=O)CCNC(=O)Nc1ccccc1 |  | inconclusive: 0.0073 µM [activator, full curve, poor fit]
60 | Cc1c(-c2ccccc2)oc2c(C(=O)OCC(=O)Nc3ccc(F)cc3)cccc2c1=O |  | inconclusive: 6.51 µM [activator, partial curve, poor fit]
61 | COc1cc(C(=O)NCCNc2nc3c(C)c(C)ccc3cc2C#N)cc(OC)c1OC |  | inconclusive: 0.651 µM [activator, full curve, poor fit]
62 | CC1CCN(c2cc(N3CCOCC3)c([N+](=O)[O-])cc2F)CC1 | inconclusive: -16.5% | 
63 | Cn1c(=O)c2c(SCC(=O)N3CCOCC3)nc(-c3ccccc3F)nc2n(C)c1=O | inconclusive: -5.77% | 
64 | CC(C)NC(=S)Nc1ccc2[nH]c(=O)[nH]c2c1 | inconclusive: 12.3% | 
65 | Cn1c2cc([N+](=O)[O-])sc2c2cnn(Cc3ccccc3F)c(=O)c21 | inconclusive: 34.8% | 
66 | N/C(=N\OC(=O)CC1CCCCC1)c1ccc(Br)cc1 | inconclusive: 7.55% | 
67 | O=C(CCNC(=O)c1ccc([N+](=O)[O-])cc1)NCC1COc2ccccc2O1 (stereo unspecified) | inconclusive | 
68 | COc1ccc(OCC(=O)Nc2ccc3c(c2)nc(CCN2CCCCC2)n3C)cc1 |  | inconclusive: 1.84 µM [activator, partial curve]
69 | O=S(=O)(c1ccc(F)c(F)c1)N1CCN(c2ccccn2)CC1 |  | inconclusive: 1.16 µM [activator, full curve]
70 | Cc1noc(-c2ccc(Cl)cc2)c1C(=O)O/N=C(\N)c1ccc(C(C)(C)C)cc1 | inconclusive: 19% | 
71 | COc1ccc(-n2c(C)nn(CCOc3ccccc3)c2=O)cc1 |  | inconclusive: 0.891 µM [falling, full curve]

2 compounds picked at random from those above, as already listed:
Row | Compound | lipid storage change, negative = inhibition | Potency
55 | N=C1/C(=C\c2ccc(OC(=O)c3ccc(F)cc3)cc2)C(=O)N=C2SC(N3CCOCC3)=NN12 |  | inconclusive: 6.51 µM [activator, partial curve]
62 | CC1CCN(c2cc(N3CCOCC3)c([N+](=O)[O-])cc2F)CC1 | inconclusive: -16.5% | 
